This assay has as its target programmed death-ligand 1 (PD-L1) (UniProt Q9NZQ7). Kind of assay: co-IP; immunoprecipitation for PD-L1 from transfected HEK-293 cells, immunoblot for GOLM1. (In general: Immunoblotting shows a protein as a band on a membrane.)

Sequences of proteins named here, by UniProt entry; tags and fusion partners are left off. Residues count along the entry.
UniProt Q9NZQ7, residues 19-290: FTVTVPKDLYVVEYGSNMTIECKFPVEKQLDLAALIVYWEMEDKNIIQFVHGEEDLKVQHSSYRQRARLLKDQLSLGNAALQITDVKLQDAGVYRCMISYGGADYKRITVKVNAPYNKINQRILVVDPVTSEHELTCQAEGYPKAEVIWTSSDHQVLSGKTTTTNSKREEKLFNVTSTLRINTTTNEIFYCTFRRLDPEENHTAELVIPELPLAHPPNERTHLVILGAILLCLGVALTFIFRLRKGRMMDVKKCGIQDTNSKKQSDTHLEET

Results are given in words; binding and its absence hold for the method and conditions named. Binding seen in cells or lysates may run through a third protein. Some entries that bind do so weakly or less than the wild type.

B1: Golgi membrane protein 1 (GOLM1) (protein, UniProt Q8NBJ4 1-401)
chain: MMGLGNGRRSMKSPPLVLAALVACIIVLGFNYWIASSRSVDLQTRIMELEGRVRRAAAERGAVELKKNEFQGELEKQREQLDKIQSSHNFQLESVNKLYQDEKAVLVNNITTGERLIRVLQDQLKTLQRNYGRLQQDVLQFQKNQTNLERKFSYDLSQCINQMKEVKEQCEERIEEVTKKGNEAVASRDLSENNDQRQQLQALSEPQPRLQAAGLPHTEVPQGKGNVLGNSKSQTPAPSSEVVLDSKRQVEKEETNEIQVVNEEPQRDRLPQEPGREQVVEDRPVGGRGFGGAGELGQTPQVQAALSVSQENPEMEGPERDQLVIPDGQEEEQEAAGEGRNQQKLRGEDDYNMDENEAESETDKQAALAGNDRNIDVFNVEDQKRDTINLLDQREKRNHTL
With B1, the binding result is listed as “binds”.

These data come from PMC11324307.
